# Data as given in PubChem BioAssay AID2685 (National Center for Advancing Translational Sciences (NCATS), 2010).
# The list shows a part of the results. Shown are side measurements of this screen, not its main read-out; they come without a call. Compounds called inactive in the main read-out are mostly missing here. Potencies come from curve fits of mixed quality, noted in brackets.
# Test: qHTS Assay for Lipid Storage Modulators in Drosophila S3 Cells;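 as to cell number change: cells counted by Cell Tracker Red CMTPX staining in the red channel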
# Conditions: BODIPY lipid droplet fluorescence, 18-24 h; for cell number change: measured here: cell count max response, cells fed with added oleic acid
# Outline: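 Drosophila S3 cells got compounds at several concentrations plus oleic acid (400 uM solution). Laser-scanning cytometry with 488 nm excitation read lipid droplets at 500-530 nm and cells at 575-640 nm. Percent activity was relative to 20 uM Triacsin C.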
# [1] = measured here: cell number channel AC50, cells fed with added oleic acid
# [2] = measured here: lipid fluorescence (Fed channel) AC50, cells fed with added oleic acid
compound,measurement,setting,value
Cc1csc(SCc2nc3scc(-c4ccccc4)c3c(=O)[nH]2)n1,AC50,[1],"0.517 µM [falling, partial curve]"
COC(=O)c1ccc(NC(=O)COC(=O)C2=NN(c3ccccc3)C(=O)CC2)cc1,cell number change,,-5.23%
same,AC50,[2],"0.461 µM [falling, single point]"
CCOc1ccc(-c2nnc(SCC(=O)O)n2Cc2ccccc2)cc1,cell number change,,-9.85%
C/C(=N\NC(=O)c1cc(C)oc1C)c1ccc(C)c([N+](=O)[O-])c1,cell number change,,-4.81%
same,AC50,[2],"4.61 µM [rising, full curve, poor fit]"
COc1ccc(CCNC(=O)c2cccnc2)cc1,cell number change,,40.6%
same,AC50,[1],"1.46 µM [rising, partial curve]"
same,AC50,[2],"0.0326 µM [rising, full curve, poor fit]"
CCN(c1ccccc1)S(=O)(=O)c1nnc(NC(=O)C(C)(C)C)s1,cell number change,,-12%
CC(C)CCOC(=O)C(C)Sc1n[nH]c(=O)[nH]c1=O (stereo not given),cell number change,,20.4%
CCCCNC(=O)OC1CCS(=O)(=O)C1 (stereo not given),cell number change,,-11.8%
same,AC50,[2],"3.66 µM [falling, full curve, poor fit]"
Cn1nccc1C(=O)Nc1ccc2c(c1)OCCO2,cell number change,,20.7%
COc1ccc(/C=C\C(=O)NCc2ccc3[nH]c(C)cc3c2)cc1OC,cell number change,,-56.5%
same,AC50,[1],"13 µM [falling, partial curve]"
same,AC50,[2],"18.4 µM [falling, partial curve]"
Cc1ccc(CN2CCSc3ccc(C(=O)NCCCN4CCN(C)CC4)cc32)cc1,cell number change,,-6.6%
same,AC50,[2],"18.4 µM [rising, partial curve]"
O=C1C2C3C=CC(C2C(=O)N1c1ccccc1O)C1C2C(=O)N(c4ccccc4O)C(=O)C2C31 (stereo not given),cell number change,,-24.6%
same,AC50,[2],"0.461 µM [falling, full curve]"
COc1cc(OC)c(NC(=O)N2CCOCC2)cc1Cl,cell number change,,3.7%
same,AC50,[2],"29.1 µM [rising, single point]"
N#Cc1nc(COc2ccccc2Cl)oc1NCc1ccc(F)cc1,cell number change,,-22.8%
same,AC50,[2],"29.1 µM [falling, single point]"
CN(C(=O)C1CCOC1)c1nnc(-c2cccnc2)s1 (stereo not given),AC50,[2],"0.00461 µM [falling, full curve, poor fit]"
COc1cccc(OC)c1C(=O)OCC(=O)NC(=O)NCc1ccccc1,cell number change,,51.6%
same,AC50,[1],"16.4 µM [rising, single point]"
CC(OCC(O)CNCC1COc2ccccc2O1)c1ccc(Cl)cc1 (stereo not given),cell number change,,21.5%
same,AC50,[2],"23.1 µM [rising, single point]"
COc1ccccc1NC(=S)NC(=O)Cc1ccc(Cl)cc1,cell number change,,16.5%
same,AC50,[2],"29.1 µM [falling, single point]"
Cc1cccc(C)c1NC(=O)/C(C#N)=C/c1ccc(-c2ccc(C(=O)O)cc2)o1,cell number change,,14.3%
CSc1nsc(SCC(=O)N2CCCCC2)n1,cell number change,,2.86%
same,AC50,[1],"3.66 µM [falling, single point]"
same,AC50,[2],"3.66 µM [falling, single point]"
CC(=O)c1c(N2CCN(C)CC2)nc(=S)n(-c2cc(C)ccc2C)c1C,cell number change,,12.3%
CCCOc1ccc(N2C(=O)CC(NCc3cccnc3)C2=O)cc1 (stereo not given),cell number change,,-5.98%
same,AC50,[2],"0.184 µM [rising, full curve, poor fit]"
Cc1cccc(NC(=O)CCc2c(C)nn(-c3ccc(N4CCCCC4)nn3)c2C)c1,cell number change,,-0.306%
same,AC50,[2],"0.58 µM [falling, partial curve, poor fit]"
COc1cc(C(=O)N(Cc2ccco2)Cc2cc3ccccc3[nH]c2=O)cc(OC)c1OC,cell number change,,16.6%
same,AC50,[2],"2.06 µM [rising, full curve]"
COc1ccc(C2=CC(=O)OC3(CCCC3)O2)cc1,cell number change,,69.3%
same,AC50,[1],"23.1 µM [rising, single point]"
Cc1oc(-c2ccccc2)cc1C(=O)Nc1ccc(N(C)C)cc1,cell number change,,-18%
COc1ccc(N2CCN(C(=O)c3cc(=O)c4cc(C)c(C)cc4o3)CC2)cc1,cell number change,,14.2%
same,AC50,[2],"6.51 µM [rising, partial curve]"
COc1cc(C)nc(N2CCCC(C(=O)NCC(C)C)C2)n1 (stereo not given),cell number change,,18%
same,AC50,[2],"16.4 µM [rising, partial curve, poor fit]"
C1CCc2nnc(C3CC3)n2CC1,cell number change,,8.01%
same,AC50,[2],"0.1 µM [rising, full curve, poor fit]"
Nc1n[nH]c(C2CC2)c1N=Nc1ccc(Cl)c(Cl)c1,cell number change,,-25.7%
Cc1cccc2cc3c(NC(=O)c4ccccn4)nn(C)c3nc12,cell number change,,30.1%
same,AC50,[1],"0.206 µM [rising, full curve, poor fit]"
same,AC50,[2],"0.259 µM [rising, full curve]"
Cc1nc(Cl)cc(CS(=O)(=O)c2ccc(Cl)cc2)n1,cell number change,,-36.9%
same,AC50,[1],"0.00651 µM [falling, full curve]"
same,AC50,[2],"0.00517 µM [falling, full curve, poor fit]"
COc1cccc(CNC(=O)CCNS(=O)(=O)c2ccc(Br)s2)c1,cell number change,,1.74%
O=C(NCc1cccc(C(F)(F)F)c1)c1ccc2c(c1)OCCO2,cell number change,,34%
S=c1[nH]nc(COc2ccccc2)n1/N=C/c1ccccc1Cl,cell number change,,-44.3%
same,AC50,[1],"14.6 µM [falling, single point]"
CC(C)(C)c1ccc(OCC(=O)N/N=C/C2CC=CCC2)cc1 (stereo not given),cell number change,,-40.7%
same,AC50,[1],"29.1 µM [falling, single point]"
CCOC(=O)C1=C(C)NC(C)=C(C(=O)OCC)C1C(=O)OCC(=O)N1CC(C)OC(C)C1 (stereo not given),cell number change,,-25.8%
same,AC50,[2],"13 µM [rising, single point]"
CC(SCc1ccccc1)C(=O)Nc1ccc2c(c1)OCO2 (stereo not given),AC50,[2],"6.51 µM [falling, single point]"
CSc1nnc(-c2sc3cc(Cl)ccc3c2Cl)n1C,AC50,[2],"20.6 µM [falling, partial curve]"
COCCCNC(=O)CNC(=S)N(Cc1ccc(F)cc1)C1CCCCC1,cell number change,,11.7%
same,AC50,[2],"2.91 µM [rising, partial curve]"
COc1ccc(NS(=O)(=O)c2cc(NC(=O)c3ccc(=O)[nH]c3)ccc2C)cc1,cell number change,,-10.8%
same,AC50,[2],"20.6 µM [rising, single point]"
O=[N+]([O-])c1ccccc1/C=N/n1c(C2CCCCC2)n[nH]c1=S,cell number change,,-30%
same,AC50,[1],"0.00517 µM [falling, full curve, poor fit]"

# 5 entries drawn at random from the list so far, as already listed:
compound,measurement,setting,value
CCCOc1ccc(N2C(=O)CC(NCc3cccnc3)C2=O)cc1 (stereo not given),cell number change,,-5.98%
same,AC50,[2],"0.184 µM [rising, full curve, poor fit]"
CC(C)CCOC(=O)C(C)Sc1n[nH]c(=O)[nH]c1=O (stereo not given),cell number change,,20.4%
CCOC(=O)C1=C(C)NC(C)=C(C(=O)OCC)C1C(=O)OCC(=O)N1CC(C)OC(C)C1 (stereo not given),AC50,[2],"13 µM [rising, single point]"
S=c1[nH]nc(COc2ccccc2)n1/N=C/c1ccccc1Cl,cell number change,,-44.3%
